Source: US20220396825A1, “METHOD FOR PREPARING […]” (KAO CORPORATION, priority 2019, published 2022)

Test system: fragments of sample DNA (genomic DNA of TA100 strain)
Test: Frequency of misrecognition of fragments (proportion of cases with inclusion of different indexes)
Set-up: species or system Salmonella typhimurium

B1: S1 nuclease: single-strand-specific endonuclease (Promega Corporation, catalog No.: M5761) (protein, UniProt P24021 21-287, looked up)
Nuclease S1: WGNLGHETVAYIAQSFVASSTESFCQNILGDDSTSYLANVATWADTYKYTDAGEFSKPYHFIDAQDNPPQSCGVDYDRDCGSAGCSISAIQNYTNILLESPNGSEALNALKFVVHIIGDIHQPLHDENLEAGGNGIDVTYDGETTNLHHIWDTNMPEEAAGGYSLSVAKTYADLLTERIKTGTYSSKKDSWTDGIDIKDPVSTSMIWAADANTYVCSTVLDDGLAYINSTDLSGEYYDKSQPVFEELIAKAGYRLAAWLDLIASQPS
Increase rate of misrecognition of fragments (S1 nuclease 0.017 U/ng vs without S1 nuclease treatment): 1.04
Proportion (%) of cases with inclusion of different indexes (S1 nuclease 0.02 U/ng, input DNA 78 amol): 1.60%
Increase rate of misrecognition of fragments (S1 nuclease 0.050 U/ng vs without S1 nuclease treatment): 1.16
Proportion (%) of cases with inclusion of different indexes (S1 nuclease 0.05 U/ng, input DNA 78 amol): 1.77%
Proportion (%) of cases with inclusion of different indexes (S1 nuclease 0.08 U/ng, input DNA 20 amol): 1.29%
Proportion (%) of cases with inclusion of different indexes (S1 nuclease 0.08 U/ng, input DNA 39 amol): 2.69%
Increase rate of misrecognition of fragments (S1 nuclease 0.167 U/ng vs without S1 nuclease treatment): 2.32
Proportion (%) of cases with inclusion of different indexes (S1 nuclease 0.17 U/ng, input DNA 78 amol): 3.56%
Proportion (%) of cases with inclusion of different indexes (S1 nuclease 0.25 U/ng, input DNA 20 amol): 2.05%
Proportion (%) of cases with inclusion of different indexes (S1 nuclease 0.25 U/ng, input DNA 39 amol): 4.32%
Proportion (%) of cases with inclusion of different indexes (S1 nuclease 0.30 U/ng only (RecJf 0 U/ng), input DNA 78 amol): 6.03%
Increase rate of misrecognition of fragments (S1 nuclease 0.500 U/ng vs without S1 nuclease treatment): 4.85
Proportion (%) of cases with inclusion of different indexes (S1 nuclease 0.50 U/ng, input DNA 78 amol): 7.44%
Increase rate of misrecognition of fragments (S1 nuclease 1.67 U/ng vs without S1 nuclease treatment): 6.72
Proportion (%) of cases with inclusion of different indexes (S1 nuclease 1.67 U/ng, input DNA 78 amol): 10.32%
